Source: the supplement of paper PMC6078165

Test system: MDAMB231
Assay: relative JC-1 red fluorescence (viability) vs pre-drug, coculture with fibroblast (fraction); higher = more viable cancer cells
Conditions: 0.1 µM
Description: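 JC-1 labelled TNBC cells cocultured 1:1 (1,500 cells each) with CellTrace Violet stained primary or stromal fibroblasts in 384-well plates in FluoroBrite medium, treated with one of 42 anticancer drugs at 0.1, 1, 10 or 100 uM. JC-1 red fluorescence (mitochondrial integrity in cancer cells only) was read by plate reader every 8 h for 72 h. Values are normalised to each well's pre-drug value. The stock of one drug was tenfold lower, so its dose labels may be too high.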

CC[C@]1(O)C[C@H]2CN(CCc3c([nH]c4ccccc34)[C@@](C(=O)OC)(c3cc4c(cc3OC)N(C=O)[C@H]3[C@@](O)(C(=O)OC)[C@H](OC(C)=O)[C@]5(CC)C=CCN6CC[C@]43[C@@H]65)C2)C1 [Vincristine]
relative JC-1 red fluorescence
Conditions	8 h	16 h	24 h	32 h	40 h	48 h	56 h	64 h	72 h
coculture fibroblast: C12385	0.7843	0.7106	0.798	0.69	0.653	0.661	0.642	0.693	0.709
coculture fibroblast: H6013	0.88355	0.8452	0.808	0.791	0.767	0.774	0.762	0.763	0.736
coculture fibroblast: H6019	0.818	0.727	0.736	0.705	0.675	0.6884	0.6737	0.715	0.701
coculture fibroblast: H6076	0.817	0.743	0.6982	0.688	0.676	0.663	0.6711	0.6819	0.71
coculture fibroblast: H6231	0.867	0.794	0.731	0.686	0.64	0.616	0.588	0.579	0.575
coculture fibroblast: HADF	0.8949	0.846	0.7967	0.748	0.696	0.665	0.64	0.621	0.579
coculture fibroblast: HCFa	0.8977	0.839	0.792	0.76	0.709	0.669	0.639	0.61	0.568
coculture fibroblast: HCPF	0.851	0.761	0.719	0.699	0.653	0.621	0.595	0.59	0.594
coculture fibroblast: HHSteC	0.906	0.87	0.835	0.785	0.748	0.729	0.693	0.678	0.654
coculture fibroblast: HMF	0.867	0.785	0.72	0.683	0.643	0.607	0.589	0.588	0.584
coculture fibroblast: HPFa	0.915	0.886	0.83	0.776	0.741	0.714	0.664	0.635	0.6
coculture fibroblast: HUF	0.82	0.696	0.7577	0.621	0.572	0.5707	0.534	0.553	0.551
coculture fibroblast: Hs5	0.847	0.813	0.799	0.774	0.769	0.732	0.73	0.728	0.73129
coculture fibroblast: Hs27A	0.883	0.837	0.797	0.781	0.733	0.724	0.705	0.699	0.672
coculture fibroblast: Hs343T	0.801	0.687	0.607	0.565	0.5109	0.48	0.45975	0.4574	0.4543
coculture fibroblast: WS1	0.773	0.695	0.744	0.642	0.606	0.612	0.587	0.632	0.639

Values are relative to the signal before dosing, not to a vehicle control; the signal also falls without drug.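 Labels refer to human fibroblasts, largely primary: uterine (C12385, HUF), lung (H6013), bone (Hs27A), adrenal (HADF), skin (WS1), plus mammary HMF and breast cancer-associated Hs343T. Cancer lines are basal-like or mesenchymal-like triple-negative breast cancer. The paper counts as hits responses shifting over 3x the replicate standard deviation. The tissue of the other fibroblasts is not given here.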
